Measured data: PubChem BioAssay AID1508597 (Cure First, 2020)
Here is an unselected part of about 2,100 reagents tested. 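Calls flag viability under 80% in either arm, not effects specific to rucaparib; the reference for percent is not stated.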 Unmarked entries are inactive. The record does not give: the 100% reference.

Test: 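Knock-downs altering ovarian cancer cell survival with or without PARP inhibitor rucaparib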 (primary screen)
Cells: human ovarian carcinoma lines grown from tumours: OCI-P5x (papillary serous) and OCI-C5x (clear cell)
Knock-down reagent: siRNA pool against human genes, 1.25 pmol siRNA per well
Time to read-out: 72 h or 96 h, depending on the cell culture
Treatment: rucaparib 20 µM (about IC30) or vehicle, present until read-out
Detection: 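Luminescent ATP-based viability assay read 72 or 96 h after transfection, depending on culture, given as normalised percent viability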
Scale: viability, normalised: higher = more viable cells remaining
Hit rule: 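Active when normalised viability falls below 80 percent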
Calls: active = viability under 80%; inactive = viability 80% or more

AXL (AXL receptor tyrosine kinase), rucaparib or vehicle Rucaparib, cell line OCI-C5x (clear cell), technical replicate 1: viability, normalised (%) = 49.2 (active)
AXL (AXL receptor tyrosine kinase), rucaparib or vehicle Rucaparib, cell line OCI-C5x (clear cell), technical replicate 2: viability, normalised (%) = 61.3 (active)
AXL (AXL receptor tyrosine kinase), rucaparib or vehicle Rucaparib, cell line OCI-C5x (clear cell), technical replicate 3: viability, normalised (%) = 54.5 (active)
AXL (AXL receptor tyrosine kinase), rucaparib or vehicle Rucaparib, cell line OCI-P5x (serous), technical replicate 1: viability, normalised (%) = 91.6
AXL (AXL receptor tyrosine kinase), rucaparib or vehicle Rucaparib, cell line OCI-P5x (serous), technical replicate 2: viability, normalised (%) = 117
AXL (AXL receptor tyrosine kinase), rucaparib or vehicle Rucaparib, cell line OCI-P5x (serous), technical replicate 3: viability, normalised (%) = 68.9 (active)
AXL (AXL receptor tyrosine kinase), rucaparib or vehicle Vehicle, cell line OCI-C5x (clear cell), technical replicate 1: viability, normalised (%) = 50.3 (active)
AXL (AXL receptor tyrosine kinase), rucaparib or vehicle Vehicle, cell line OCI-C5x (clear cell), technical replicate 2: viability, normalised (%) = 66.9 (active)
AXL (AXL receptor tyrosine kinase), rucaparib or vehicle Vehicle, cell line OCI-C5x (clear cell), technical replicate 3: viability, normalised (%) = 59.7 (active)
AXL (AXL receptor tyrosine kinase), rucaparib or vehicle Vehicle, cell line OCI-P5x (serous), technical replicate 1: viability, normalised (%) = 93.1
AXL (AXL receptor tyrosine kinase), rucaparib or vehicle Vehicle, cell line OCI-P5x (serous), technical replicate 2: viability, normalised (%) = 68.6 (active)
AXL (AXL receptor tyrosine kinase), rucaparib or vehicle Vehicle, cell line OCI-P5x (serous), technical replicate 3: viability, normalised (%) = 63.2 (active)
ARX (aristaless related homeobox), rucaparib or vehicle Rucaparib, cell line OCI-C5x (clear cell), technical replicate 1: viability, normalised (%) = 54.4 (active)
ARX (aristaless related homeobox), rucaparib or vehicle Rucaparib, cell line OCI-C5x (clear cell), technical replicate 2: viability, normalised (%) = 55.4 (active)
ARX (aristaless related homeobox), rucaparib or vehicle Rucaparib, cell line OCI-C5x (clear cell), technical replicate 3: viability, normalised (%) = 40.6 (active)
ARX (aristaless related homeobox), rucaparib or vehicle Rucaparib, cell line OCI-P5x (serous), technical replicate 1: viability, normalised (%) = 63.8 (active)
ARX (aristaless related homeobox), rucaparib or vehicle Rucaparib, cell line OCI-P5x (serous), technical replicate 2: viability, normalised (%) = 63.8 (active)
ARX (aristaless related homeobox), rucaparib or vehicle Rucaparib, cell line OCI-P5x (serous), technical replicate 3: viability, normalised (%) = 62.7 (active)
ARX (aristaless related homeobox), rucaparib or vehicle Vehicle, cell line OCI-C5x (clear cell), technical replicate 1: viability, normalised (%) = 40.5 (active)
ARX (aristaless related homeobox), rucaparib or vehicle Vehicle, cell line OCI-C5x (clear cell), technical replicate 2: viability, normalised (%) = 39.3 (active)
ARX (aristaless related homeobox), rucaparib or vehicle Vehicle, cell line OCI-C5x (clear cell), technical replicate 3: viability, normalised (%) = 40 (active)
ARX (aristaless related homeobox), rucaparib or vehicle Vehicle, cell line OCI-P5x (serous), technical replicate 1: viability, normalised (%) = 46.9 (active)
ARX (aristaless related homeobox), rucaparib or vehicle Vehicle, cell line OCI-P5x (serous), technical replicate 2: viability, normalised (%) = 77.3 (active)
ARX (aristaless related homeobox), rucaparib or vehicle Vehicle, cell line OCI-P5x (serous), technical replicate 3: viability, normalised (%) = 71.2 (active)
DHX35 (DEAH-box helicase 35), rucaparib or vehicle Rucaparib, cell line OCI-C5x (clear cell), technical replicate 1: viability, normalised (%) = 66.7 (active)
DHX35 (DEAH-box helicase 35), rucaparib or vehicle Rucaparib, cell line OCI-C5x (clear cell), technical replicate 2: viability, normalised (%) = 55.7 (active)
DHX35 (DEAH-box helicase 35), rucaparib or vehicle Rucaparib, cell line OCI-C5x (clear cell), technical replicate 3: viability, normalised (%) = 65.9 (active)
DHX35 (DEAH-box helicase 35), rucaparib or vehicle Rucaparib, cell line OCI-P5x (serous), technical replicate 1: viability, normalised (%) = 49.9 (active)
DHX35 (DEAH-box helicase 35), rucaparib or vehicle Rucaparib, cell line OCI-P5x (serous), technical replicate 2: viability, normalised (%) = 76.3 (active)
DHX35 (DEAH-box helicase 35), rucaparib or vehicle Rucaparib, cell line OCI-P5x (serous), technical replicate 3: viability, normalised (%) = 76.4 (active)
DHX35 (DEAH-box helicase 35), rucaparib or vehicle Vehicle, cell line OCI-C5x (clear cell), technical replicate 1: viability, normalised (%) = 38.3 (active)
DHX35 (DEAH-box helicase 35), rucaparib or vehicle Vehicle, cell line OCI-C5x (clear cell), technical replicate 2: viability, normalised (%) = 38.3 (active)
DHX35 (DEAH-box helicase 35), rucaparib or vehicle Vehicle, cell line OCI-C5x (clear cell), technical replicate 3: viability, normalised (%) = 41.2 (active)
DHX35 (DEAH-box helicase 35), rucaparib or vehicle Vehicle, cell line OCI-P5x (serous), technical replicate 1: viability, normalised (%) = 52.5 (active)
DHX35 (DEAH-box helicase 35), rucaparib or vehicle Vehicle, cell line OCI-P5x (serous), technical replicate 2: viability, normalised (%) = 65.2 (active)
DHX35 (DEAH-box helicase 35), rucaparib or vehicle Vehicle, cell line OCI-P5x (serous), technical replicate 3: viability, normalised (%) = 54.5 (active)

2 entries from above, set out differently.
{"gene knocked down":"DHX35 (DEAH-box helicase 35)","rucaparib or vehicle":"Vehicle","cell line":"OCI-C5x (clear cell)","technical replicate":"1","viability, normalised (%)":"38.3 (active)"}
{"gene knocked down":"DHX35 (DEAH-box helicase 35)","rucaparib or vehicle":"Vehicle","cell line":"OCI-C5x (clear cell)","technical replicate":"2","viability, normalised (%)":"38.3 (active)"}
